No constants are given. Whether binding was seen depends on the method and setting. Binding seen in cells or lysates may run through a third protein. Some binding calls cover weakened binding; strength is not graded here.

Amino acid sequences for entries named in this document (tags omitted).
UniProt Q9NYV4: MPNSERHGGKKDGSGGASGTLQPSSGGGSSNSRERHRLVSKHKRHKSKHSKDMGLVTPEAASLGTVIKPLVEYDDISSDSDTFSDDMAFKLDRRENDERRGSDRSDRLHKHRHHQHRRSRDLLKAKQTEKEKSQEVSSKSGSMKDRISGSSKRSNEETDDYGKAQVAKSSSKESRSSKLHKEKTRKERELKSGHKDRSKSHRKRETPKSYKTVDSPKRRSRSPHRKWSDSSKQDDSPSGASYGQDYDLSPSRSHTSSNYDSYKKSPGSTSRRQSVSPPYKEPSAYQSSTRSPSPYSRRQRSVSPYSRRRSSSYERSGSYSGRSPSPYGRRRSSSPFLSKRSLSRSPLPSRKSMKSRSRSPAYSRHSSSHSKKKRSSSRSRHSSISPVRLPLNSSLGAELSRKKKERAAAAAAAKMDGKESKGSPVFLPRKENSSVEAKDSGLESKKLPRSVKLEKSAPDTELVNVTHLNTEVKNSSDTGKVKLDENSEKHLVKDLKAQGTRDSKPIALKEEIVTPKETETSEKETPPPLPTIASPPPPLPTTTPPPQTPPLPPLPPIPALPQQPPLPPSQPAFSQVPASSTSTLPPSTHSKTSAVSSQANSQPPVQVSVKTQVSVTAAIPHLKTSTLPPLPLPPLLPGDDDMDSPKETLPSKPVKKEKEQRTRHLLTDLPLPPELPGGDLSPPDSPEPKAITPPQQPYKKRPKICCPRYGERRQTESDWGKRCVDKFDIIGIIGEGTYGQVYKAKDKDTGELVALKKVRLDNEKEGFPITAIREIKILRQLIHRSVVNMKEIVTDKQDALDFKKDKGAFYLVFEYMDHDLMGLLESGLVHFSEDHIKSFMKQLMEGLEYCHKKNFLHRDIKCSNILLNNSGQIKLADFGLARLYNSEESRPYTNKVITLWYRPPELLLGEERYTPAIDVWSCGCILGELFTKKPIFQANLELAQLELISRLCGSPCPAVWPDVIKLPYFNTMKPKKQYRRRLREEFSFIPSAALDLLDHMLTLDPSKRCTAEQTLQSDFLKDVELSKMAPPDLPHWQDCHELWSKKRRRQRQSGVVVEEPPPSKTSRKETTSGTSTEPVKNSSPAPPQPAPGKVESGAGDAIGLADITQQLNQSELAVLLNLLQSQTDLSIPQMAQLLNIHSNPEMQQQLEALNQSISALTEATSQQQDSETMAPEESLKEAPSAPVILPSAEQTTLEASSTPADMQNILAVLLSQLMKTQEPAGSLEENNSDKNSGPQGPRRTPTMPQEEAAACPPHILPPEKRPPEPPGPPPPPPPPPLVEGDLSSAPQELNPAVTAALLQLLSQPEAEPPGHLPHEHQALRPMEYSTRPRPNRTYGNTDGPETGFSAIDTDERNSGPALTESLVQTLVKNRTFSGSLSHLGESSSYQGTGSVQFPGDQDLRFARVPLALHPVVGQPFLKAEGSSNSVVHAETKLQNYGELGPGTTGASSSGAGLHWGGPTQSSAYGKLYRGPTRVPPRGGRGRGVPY
UniProt P49841: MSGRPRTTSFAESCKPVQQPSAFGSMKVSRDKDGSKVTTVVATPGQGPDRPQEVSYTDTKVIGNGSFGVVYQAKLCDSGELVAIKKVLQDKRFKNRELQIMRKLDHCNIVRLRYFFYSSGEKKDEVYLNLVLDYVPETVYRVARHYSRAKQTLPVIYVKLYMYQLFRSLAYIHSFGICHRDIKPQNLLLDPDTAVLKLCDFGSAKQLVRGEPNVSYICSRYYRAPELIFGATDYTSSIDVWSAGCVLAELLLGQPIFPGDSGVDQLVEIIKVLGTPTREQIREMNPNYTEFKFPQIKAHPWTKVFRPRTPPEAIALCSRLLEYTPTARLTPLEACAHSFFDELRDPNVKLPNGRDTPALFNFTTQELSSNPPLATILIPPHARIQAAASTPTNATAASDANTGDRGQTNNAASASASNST

This passage reports binding results from paper PMC12643520.

Assay [1] addresses FLAG-tagged CDK12 (UniProt Q9NYV4). The assay is described as follows: co-IP; HEK293T cells transfected with HA-GSK3β alone or with HA-GSK3β and FLAG-CDK12; lysates 24 h after transfection; immunoprecipitation with anti-FLAG antibody; Western blot with anti-HA or anti-FLAG. For orientation: A western blot detects proteins with antibodies after separation by electrophoresis.
The target is the same in assay [2]. The assay is described as follows: co-IP; U251 cells transfected with FLAG-CDK12; lysates 24 h after transfection; immunoprecipitation with anti-FLAG antibody; Western blot with anti-FLAG or anti-GSK3β.

For the substance “HA-tagged GSK3β (from UniProt P49841 1-420)”, in the assay with FLAG-tagged CDK12 [1], the binding entry is on record as “binds”. On to “endogenous GSK3β (from UniProt P49841 1-420)”, for which the binding result in the assay with FLAG-tagged CDK12 [2] was “binds”.
